Experimental data reported in article doi:10.1101/2020.11.06.372292.
No constants are given. Whether binding was seen depends on the method and setting. In cells and extracts the contact can be indirect. Some entries that bind do so weakly or less than the wild type.

T1: βPix, endogenous in mouse kidney (mouse (endogenous in kidney tissue)) (UniProt Q9ES28)
T1 sequence: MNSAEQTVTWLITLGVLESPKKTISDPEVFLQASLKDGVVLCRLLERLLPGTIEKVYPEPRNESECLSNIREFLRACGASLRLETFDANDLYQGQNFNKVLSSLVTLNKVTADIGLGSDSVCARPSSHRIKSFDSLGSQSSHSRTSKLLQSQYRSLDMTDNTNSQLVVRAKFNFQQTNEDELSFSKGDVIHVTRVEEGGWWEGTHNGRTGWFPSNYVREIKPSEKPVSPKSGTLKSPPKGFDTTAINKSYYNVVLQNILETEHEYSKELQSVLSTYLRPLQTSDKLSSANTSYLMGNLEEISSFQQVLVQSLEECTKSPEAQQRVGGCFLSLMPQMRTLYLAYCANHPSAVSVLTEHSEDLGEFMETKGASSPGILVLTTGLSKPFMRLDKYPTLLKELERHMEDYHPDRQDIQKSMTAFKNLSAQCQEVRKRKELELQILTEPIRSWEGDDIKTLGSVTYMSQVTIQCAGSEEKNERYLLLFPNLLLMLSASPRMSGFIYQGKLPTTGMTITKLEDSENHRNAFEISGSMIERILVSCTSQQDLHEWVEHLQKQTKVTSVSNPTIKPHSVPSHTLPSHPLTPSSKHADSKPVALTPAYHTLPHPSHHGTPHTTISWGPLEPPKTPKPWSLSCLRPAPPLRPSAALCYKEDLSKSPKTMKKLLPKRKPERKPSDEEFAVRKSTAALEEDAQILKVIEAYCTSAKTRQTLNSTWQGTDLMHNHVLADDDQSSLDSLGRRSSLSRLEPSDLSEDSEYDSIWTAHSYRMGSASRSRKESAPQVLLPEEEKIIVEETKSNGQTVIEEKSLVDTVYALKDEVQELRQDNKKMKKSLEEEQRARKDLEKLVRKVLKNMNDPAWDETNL


Legend:
Experiment in all cases: co-IP
[1] = target: T1, βPix, endogenous in mouse kidney (mouse (endogenous in kidney tissue))
[2] = target: low density lipoprotein receptor (LDLR), endogenous in HepG2 cells (human (endogenous in HepG2)) (UniProt P01130)
[3] = target: βPix, endogenous in HepG2 cells (human (endogenous in HepG2)) (UniProt Q14155)

| Binder | binding [1] | binding [2] | binding [3] |
| --- | --- | --- | --- |
| inducible degrader of the LDLR (IDOL), endogenous in mouse kidney (enzyme, UniProt Q8BM54 1-445) MLCYVTRPDAVLMEVEVEAKANGEDCLNQVCRRLGIIEVDYFGLQFTGSKGESLWLNLRNRISQQMDGLAPYRLKLRVKFFVEPHLILQEQTRHIFFLHIKESLLAGHLQCSPEQAVELSALLAQTKFGDYNQNTAQYSYEDLCEKELSSSTLNSIVAKHKELEGISQASAEYQVLQIVSAMENYGIEWHAVRDSEGQKLLIGVGPEGISICKEDFSPINRIAYPVVQMATQSGKNVYLTVTKESGNSIVLLFKMISTRAASGLYRAITETHAFYRCDTVTSAVMMQYSRDLKGHLASLFLNENINLGKKYVFDIKRTSKEVYDHARRALYNAGVVDLVSRSDQSPPSSPLKSSDSSMSCSSCEGLSCQQTRVLQEKLRKLKEAMLCMACCEEEINSTFCPCGHTVCCESCAAQLQSCPVCRSRVEHVQHVYLPTHTSLLNLTVI | binds |  |  |
| inducible degrader of the LDLR (IDOL), endogenous in HepG2 cells (enzyme, UniProt Q8WY64 1-445) MLCYVTRPDAVLMEVEVEAKANGEDCLNQVCRRLGIIEVDYFGLQFTGSKGESLWLNLRNRISQQMDGLAPYRLKLRVKFFVEPHLILQEQTRHIFFLHIKEALLAGHLLCSPEQAVELSALLAQTKFGDYNQNTAKYNYEELCAKELSSATLNSIVAKHKELEGTSQASAEYQVLQIVSAMENYGIEWHSVRDSEGQKLLIGVGPEGISICKDDFSPINRIAYPVVQMATQSGKNVYLTVTKESGNSIVLLFKMISTRAASGLYRAITETHAFYRCDTVTSAVMMQYSRDLKGHLASLFLNENINLGKKYVFDIKRTSKEVYDHARRALYNAGVVDLVSRNNQSPSHSPLKSSESSMNCSSCEGLSCQQTRVLQEKLRKLKEAMLCMVCCEEEINSTFCPCGHTVCCESCAAQLQSCPVCRSRVEHVQHVYLPTHTSLLNLTVI |  | binds | binds |
